This series in a line: Fmoc solid-phase peptide synthesis; Rink amide MBHA resin; DIC/HOBt. Conditions: whole synthesis, scale 5 mmoles.

HELM strings list residues between dots; [ac] is acetyl, [am] amide, other brackets name non-standard units.

As for “PEPTIDE1{[PhAc].L.D.F.[dP].[am]}$$$$V2.0”, the isolated mass is listed as 1.8 g.
